Reference: PubChem BioAssay AID504467 (National Center for Advancing Translational Sciences (NCATS), 2011)
Among all 330,000 compounds or so, about 7,700 (2.3%) were called active. The inconclusive results got no clear call from the source; some entries with a clear call stand among them for comparison. Calls follow the shape of the dose curve; as a rule, active = well fitted inhibition curve with a large enough effect; inconclusive = small, poorly fitted or top-dose-only effect, or effect the other way; inactive = flat fitted curve, though single readings scatter. A potency beside an inconclusive call is a rough fit, not a confirmed value.

Experiment: qHTS screen for small molecules that inhibit ELG1-dependent DNA repair in human embryonic kidney (HEK293T) cells expressing luciferase-tagged ELG1; also: nearly all actives have a fitted effect of over 55% in size
Settings: HEK293T ELG1-luciferase reporter, luminescence, 16 h, DNA damage induced by 5-fluorouridine; series mostly up to 46.1 µM
Summary of the method: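 HEK293T cells expressing luciferase-tagged ELG1 (2,000/well) received 5-Fluorouridine plus compound or DMSO for 16 hr at 37 °C. Luciferase was read by ONE-Glo luminescence after 30 min at room temperature.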
Potency is read from the fitted curve at half-maximal effect.

| Compound | Potency |
| --- | --- |
| Cn1c(N)c(C(=O)COC(=O)c2ccc(Cl)c(S(=O)(=O)N3CCCCC3)c2)c(=O)n(C)c1=O | inconclusive: 29.1 µM [inhibitor, single point] |
| Cc1ccc(C(=O)Nc2sc3c(c2C(=O)O)CCCC3)o1 | inconclusive: 18.3 µM [activator, single point] |
| O=C(CSc1nc2ccccc2c(=O)n1NC(=O)c1ccccc1)c1ccc(Cl)cc1 | inconclusive: 5.01 µM [activator, partial curve] |
| Cc1ccc(OCC(=O)N(C)Cc2ccccc2)c([N+](=O)[O-])n1 | inactive |
| CCOc1ccc(N(C(=O)c2snc(C(N)=O)c2N)C(CC)C(=O)NC2CCCC2)cc1 (centres undefined) | inactive |
| COc1ccc(S(=O)(=O)n2cnc3cc(C)c(C)cc32)cc1 | active: 13 µM |
| COc1ccc2oc(C(=O)Nc3nccs3)c(C)c2c1 | inconclusive: 0.891 µM [activator, full curve, poor fit] |
| COc1ccc2cnnc(SCC(=O)Nc3ccccc3)c2c1OC | inconclusive: 25.9 µM [inhibitor, partial curve, poor fit] |
| COc1ccc(C2CC(c3cccs3)=NN2C(=O)c2ccc(Br)o2)cc1 (centres undefined) | inactive |
| CC(=O)c1ccc(-c2ccc(C(=O)NC3CCCCCC3)o2)cc1 | inconclusive: 18.3 µM [inhibitor, single point] |
| CCC1CCCCN1CCCCOc1cccc(Cl)c1 (centres undefined) | inconclusive: 7.3 µM [inhibitor, partial curve] |
| O=C(CSc1nnc(-c2cccnc2)o1)Nc1nccs1 | inactive |
| Cc1cc(-c2ccc(C(=O)O)s2)cnc1N | inconclusive: 16.4 µM [activator, partial curve] |
| CC(C)Oc1c(Br)cc(Br)cc1/C=N/NC(N)=S | inconclusive: 20.6 µM [inhibitor, partial curve] |
| N#Cc1c(NC(=O)c2cccc(S(=O)(=O)Nc3ccc(C(=O)O)cc3)c2)sc2c1CCCC2 | inconclusive: 13 µM [activator, partial curve, poor fit] |
| Cc1ccccc1-c1cc(C(=O)O)nn1CC1CC(c2cccc([N+](=O)[O-])c2)=NO1 (centres undefined) | inactive |
| COc1ccccc1NS(=O)(=O)c1cc(NC(=O)c2cc(F)c(F)c(F)c2F)ccc1N1CCOCC1 | inactive |
| COc1cc(/C=C2\SC(=O)N(c3ccc(O)cc3)C2=O)cc(OC)c1OC | inconclusive: 29.1 µM [inhibitor, single point] |
| O=C(c1cncc(Br)c1)N1CCN(c2ccc([N+](=O)[O-])cc2)CC1 | inconclusive: 10.3 µM [inhibitor, partial curve, poor fit] |
| O=C(Nc1c(F)cccc1F)c1cnc(N2CCN(c3ccccn3)CC2)c2ccccc12 | active: 18.4 µM |
| C/C(=N\NC(=S)NCC(C)(C)C)c1cc(F)cc(F)c1O | inconclusive: 18.3 µM [inhibitor, single point] |
| CN(C)Cc1cc(C(C)(C)c2cc(CN(C)C)c(O)c(CN(C)C)c2)cc(CN(C)C)c1O | inactive |

Part of the list above, field by field:
COc1ccccc1NS(=O)(=O)c1cc(NC(=O)c2cc(F)c(F)c(F)c2F)ccc1N1CCOCC1
  Potency: inactive
COc1cc(/C=C2\SC(=O)N(c3ccc(O)cc3)C2=O)cc(OC)c1OC
  Potency: inconclusive: 29.1 µM [inhibitor, single point]
O=C(c1cncc(Br)c1)N1CCN(c2ccc([N+](=O)[O-])cc2)CC1
  Potency: inconclusive: 10.3 µM [inhibitor, partial curve, poor fit]

Remaining list, next part

| Compound | Potency |
| --- | --- |
| CCOC(=O)c1cnc(SC)nc1Oc1cccc(NC(=O)c2ccc(C)cc2)c1 | inconclusive: 23.1 µM [activator, partial curve, poor fit] |
| COc1ccc(-c2cc(-c3ccccc3)no2)cc1 | inconclusive: 2 µM [activator, partial curve] |
| O=C(CNC(=S)NC(=O)c1cccc([N+](=O)[O-])c1)c1ccccc1 | inconclusive: 18.4 µM [activator, partial curve, poor fit] |
| COc1ccccc1NC(=O)Cn1nc(-c2ccc3c(c2)OCCO3)ccc1=O | inactive |
| O=C1CCCc2sc3c(c2N1)CCCCC3 | inconclusive: 20.6 µM [activator, single point] |
| Nc1nc2c(-c3ccc(Br)cc3)nnn2c2ccccc12 | inconclusive: 1.16 µM [activator, full curve] |
| O=c1[nH]nc(SCc2ccccc2Cl)n1-c1ccc2c(c1)OCCO2 | inconclusive: 29.1 µM [inhibitor, single point] |
| O=C(O)CCn1nnc(-c2cccs2)n1 | inactive |
| CCOc1ccc(NC(=O)CNC(=O)c2cn(-c3ccccc3OC)c(=O)c3ccccc23)cc1 | inconclusive: 18.4 µM [inhibitor, partial curve, poor fit] |
| COc1ccc(C2CC(c3ccc(Cl)cc3)=NN2C(C)=O)cc1 (centres undefined) | inconclusive: 23.1 µM [activator, partial curve] |
| C=CCN1C(=O)/C(=C2/Sc3ccc(OC)cc3N2C)SC1=Nc1cccc(O)c1 | inconclusive: 20.6 µM [activator, partial curve, poor fit] |
| Cc1[nH]c2ccc(Br)cc2c(=S)c1C/C=C/Cl | inconclusive: 29.1 µM [inhibitor, single point] |
| Cc1cc(Nc2cccc([N+](=O)[O-])c2)n2c(nc3ccccc32)c1C#N | inconclusive: 2.06 µM [inhibitor, full curve] |
| COc1ccc(C2C(C#N)=C(N)OC3=C2C(=O)CC(C)(C)C3)cc1 (centres undefined) | inactive |
| O=C(NCc1ccccc1)N1CCOCC1 | inactive |
| Cc1ccc(S(=O)(=O)N2C[C@@H]3c4ccccc4N(S(=O)(=O)c4ccc(C)cc4)[C@@H]3[C@@H](C)C2CC(=O)c2ccccc2)cc1 (some centres undefined) | inconclusive: 14.6 µM [activator, partial curve, poor fit] |
| C/C(=N\NC(=O)c1cccc(Br)c1)c1cccnc1 | inactive |
| C=CCn1c(C)cc(-c2csc(NC(=O)CCc3nc4ccccc4c(=O)[nH]3)n2)c1C | inconclusive: 5.17 µM [inhibitor, single point] |
| Nc1ccc2nn(-c3ccccc3)nc2c1 | inconclusive: 9.2 µM [activator, partial curve] |
| Cc1cc(Nc2cccc(Cl)c2C)n2ncnc2n1 | inconclusive: 11.6 µM [activator, partial curve, poor fit] |
| CCOC(=O)N1CCc2c(sc(NC(=O)c3ccc(S(=O)(=O)N4CCCC4)cc3)c2C#N)C1 | active: 16.4 µM |
| Cc1nc2ccccc2n1-c1nc(-c2ccco2)cc(C(F)(F)F)n1 | inactive |
